For 7 molecules, binding results are on record in publication PMC10047868.

Chains of the proteins cited; added tags and fusions are not shown. Residues count along the entry.
UniProt Q26365: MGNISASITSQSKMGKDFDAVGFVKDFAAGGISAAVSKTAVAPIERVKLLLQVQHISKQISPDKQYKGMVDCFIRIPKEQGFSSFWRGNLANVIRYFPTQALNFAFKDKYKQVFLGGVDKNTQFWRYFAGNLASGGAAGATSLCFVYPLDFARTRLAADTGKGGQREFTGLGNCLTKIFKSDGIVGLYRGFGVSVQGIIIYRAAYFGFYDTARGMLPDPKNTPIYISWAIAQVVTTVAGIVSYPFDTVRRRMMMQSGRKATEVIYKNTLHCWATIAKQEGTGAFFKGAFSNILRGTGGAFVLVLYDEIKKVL
UniProt P35381, residues 48-552: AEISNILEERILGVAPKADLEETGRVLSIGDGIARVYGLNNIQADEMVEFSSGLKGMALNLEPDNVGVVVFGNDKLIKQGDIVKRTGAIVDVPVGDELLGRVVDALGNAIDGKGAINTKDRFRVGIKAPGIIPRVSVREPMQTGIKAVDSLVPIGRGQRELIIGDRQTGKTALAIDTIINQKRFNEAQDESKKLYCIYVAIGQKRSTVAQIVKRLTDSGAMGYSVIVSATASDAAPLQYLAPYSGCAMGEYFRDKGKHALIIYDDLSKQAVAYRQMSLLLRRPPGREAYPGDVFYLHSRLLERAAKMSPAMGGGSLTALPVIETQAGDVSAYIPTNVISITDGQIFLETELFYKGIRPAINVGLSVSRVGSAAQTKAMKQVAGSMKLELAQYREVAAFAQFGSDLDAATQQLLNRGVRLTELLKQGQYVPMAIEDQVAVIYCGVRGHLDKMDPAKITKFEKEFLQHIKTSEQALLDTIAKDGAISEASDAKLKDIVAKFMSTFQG
UniProt Q05825, residues 32-505: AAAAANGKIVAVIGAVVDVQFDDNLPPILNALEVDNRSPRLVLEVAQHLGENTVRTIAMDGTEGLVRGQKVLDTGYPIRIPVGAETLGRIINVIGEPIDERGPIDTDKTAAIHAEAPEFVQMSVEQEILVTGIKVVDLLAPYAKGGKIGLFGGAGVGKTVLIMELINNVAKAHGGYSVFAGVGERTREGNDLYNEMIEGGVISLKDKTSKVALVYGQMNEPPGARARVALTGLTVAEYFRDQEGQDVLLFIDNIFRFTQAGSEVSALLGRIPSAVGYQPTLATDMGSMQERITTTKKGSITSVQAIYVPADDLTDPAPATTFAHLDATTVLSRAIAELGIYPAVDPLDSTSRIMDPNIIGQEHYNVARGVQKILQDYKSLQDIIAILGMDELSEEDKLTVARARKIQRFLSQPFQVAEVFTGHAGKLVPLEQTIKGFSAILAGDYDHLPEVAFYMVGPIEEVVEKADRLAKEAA

B1: ATP synthase subunit d, D. melanogaster (protein, UniProt Q24251 1-178)
chain: MAARRIAQSSINWSALAERVPANQKSSFGAFKTKSDIYVRAVLANPECPPQIDWANYKKLVPVAGLVDSFQKQYEALKVPYPQDKVSSQVDAEIKASQSEIDAYKKASEQRIQNYQKEIAHLKSLLPYDQMTMEDYRDAFPDSALDPLNKPTFWPHTPEEQVGYKSKEQLEAEAQGHH
B2: putative ATP synthase subunit f, D. melanogaster (protein, UniProt Q9W141 1-107)
chain: MAFGDYPAEYNPKVHGPYDPARFYGKADVPFGQVKLGEIGAWLGRRNKTPNAVAGAVSRAWWRWQHKYVFPKRAGIAPFFQLTVASMTFFYLINYTKLKHHRNYKYH

These are yes or no findings as the source states them, for the method shown. Binding seen in cells or lysates may run through a third protein. Here binding means that the protein was enriched with, or labelled near, the bait; the list need not be complete.

For this assay, the target named is T1, D. melanogaster globin 1 (Glob1) (D. melanogaster (endogenous in isolated mitochondria)) (UniProt Q9VF15).
T1 sequence: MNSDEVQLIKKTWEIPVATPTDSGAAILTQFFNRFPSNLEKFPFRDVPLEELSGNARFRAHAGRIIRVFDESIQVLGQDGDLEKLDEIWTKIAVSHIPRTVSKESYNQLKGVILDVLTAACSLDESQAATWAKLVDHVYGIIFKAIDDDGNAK
The assay can be described thus: affinity purification with mass spectrometry; co-immunoprecipitation with anti-HbB antibody (ab227552) on Dynabeads Protein G, D. melanogaster mitochondrial fraction, overnight 18 h at 4 °C; MALDI-TOF/MS of the eluate.
For the molecule “ADP/ATP carrier protein, D. melanogaster (from UniProt Q26365 1-312)”, the binding result is given as “binds”.

Turning to “ATP synthase subunit alpha, D. melanogaster (from UniProt P35381 48-552)”, the binding entry is listed as “binds”. ATP synthase subunit b, D. melanogaster: the binding result is listed as “binds”. The result for “ATP synthase subunit beta, D. melanogaster (from UniProt Q05825 32-505)” reads “binds”; that for “ATP synthase subunit gamma, D. melanogaster”, “binds”. As for B1, the entry is “binds”; as for B2, “binds”.
